These results are taken from PMC7617456, “Cryptosporidium lysyl-tRNA synthetase inhibitors define the interplay between solubility and permeability required to achieve efficacy” (Science translational medicine, 2024).

The data set concerns C. parvum. Type of data set: cell-based, Cryptosporidium parvum. Particulars: C. parvum EC50 curve.

Where “and” joins values, the source holds several entries; their conditions need not be identical. Equal values may be shown once.

Consider `Nc1nc2c(c(C(F)(F)F)n1)C(=O)N(CC1CCCC(C(F)(F)F)C1)C2` (centres unmarked) [DDD489], for which the hill slope is 2.716 and 2.7.
Turning to `O=C(NCC1(O)CCCCC1)c1cc(=O)c2cc(O)ccc2o1` [DDD508], the hill slope was 2.076 and 2.1.
